{"source": "PubChem BioAssay AID540276", "about": "(National Center for Advancing Translational Sciences (NCATS), 2011)", "note": "Values joined by “and” are separate entries in the source; they are usually repeats but may differ in a detail not shown here. Equal values may be shown once. The campaign covered roughly 300,000 compounds. About 5,400 (1.8%) were called active. The inconclusive results got no clear call from the source; some entries with a clear call stand among them for comparison. Calls come from the whole dose curve; tested in HEK293 cells. Potencies beside an inconclusive call are fits to weak or partial responses and may not hold up. % is set by controls: 0 for no effect and ±100 for the full control effect; potency is the fitted concentration of half-maximal effect.", "data": [{"experiment": "qHTS for inhibitors of binding or entry into cells for Marburg Virus", "conditions": "Marburg virus pseudotyped entry inhibition, cell reporter; activity change, negative = inhibition: at 37.8 µM (top of the series) unless noted", "values": [{"molecule": "O=C(Nc1nccs1)c1cc2c(s1)CCCCC2", "Potency": "inconclusive: 2 µM [inhibitor, partial curve, poor fit]"}, {"molecule": "Cc1cc(Nc2cnc3ccccc3n2)n(-c2ccccc2)n1", "Potency": "inconclusive: 29.1 µM [inhibitor, single point]"}, {"molecule": "COc1ccccc1C(=O)NCC(c1ccco1)N1CCc2ccccc21", "note": "(configuration not stated)", "Potency": "inconclusive: 12.6 µM [inhibitor, partial curve, poor fit]"}, {"molecule": "CC(=O)c1c(C)[nH]c(C(=O)Nc2cccc(C#N)c2)c1C", "activity change, negative = inhibition": "inactive: -2.01% [at 46.1 µM]"}, {"molecule": "CCCCn1c(=O)[nH]c(=O)c2c1nc(-c1ccc(-c3ccccc3Br)o1)n2CC", "activity change, negative = inhibition": "inactive: -23.1%"}, {"molecule": "CC(C)(C)C1CCC(C(=O)OCC(=O)Nc2ccc3[nH]c(=O)[nH]c3c2)CC1", "note": "(configuration not stated)", "Potency": "inconclusive: 11.2 µM [inhibitor, single point]"}, {"molecule": "Cc1nn2c(C(F)(F)F)cc(-c3ccc(OC(C)C)cc3)nc2c1C#N", "activity change, negative = inhibition": "inactive: -0.0436% [at 46.1 µM]"}, {"molecule": "CC(=O)N1CCN(C(=S)Nc2ccc(SC(F)F)cc2)CC1", "activity change, negative = inhibition": "inactive: 4.96% [at 46.1 µM]"}, {"molecule": "O=C(Nc1ccc2c(c1)oc1ccc(S(=O)(=O)N3CCCC3)cc12)C1CC1", "activity change, negative = inhibition": "inactive: -25%"}, {"molecule": "COc1ccccc1C(CC(=O)Nc1ccc(Cl)cc1)c1ccc(OC(C)C)cc1", "note": "(configuration not stated)", "Potency": "inconclusive: 8.2 µM [inhibitor, partial curve]"}, {"molecule": "Fc1ccc(Nc2nc(Oc3ccc4c(c3)OCO4)nc(N3CCOCC3)n2)c(F)c1", "Potency": "inconclusive: 23.1 µM [inhibitor, single point]"}, {"molecule": "COc1ccc(/C(C)=N/Nc2ccc(C(=O)O)cc2)c(OC)c1", "Potency": "inconclusive: 3.16 µM [inhibitor, full curve]"}, {"molecule": "CCCNC(=O)Nc1ccc2c(c1)N(C)C(=O)c1ccccc1S2", "activity change, negative = inhibition": "inactive: -2.91%"}, {"molecule": "CCn1c(SCC(=O)c2ccccc2)nc2sc3c(c2c1=O)CCN(C)C3", "Potency": "inconclusive: 5.01 µM [inhibitor, full curve, poor fit]"}, {"molecule": "COc1cccc(/C=C2\\N=C3CCCCCN3C2=O)c1", "Potency": "inconclusive: 29.1 µM [activator, single point]"}, {"molecule": "CC(C(=O)O)N1C(=O)c2ccccc2C1=O", "note": "(configuration not stated)", "activity change, negative = inhibition": "inactive: 1.05%"}, {"molecule": "CCn1nc(C)c(CN2CCc3c([nH]c4ccccc34)C2c2ccc(F)c(OC)c2)c1C", "note": "(configuration not stated)", "Potency": "inconclusive: 25.1 µM [inhibitor, partial curve, poor fit]"}, {"molecule": "CCCCN(C(=O)C1=COCCO1)c1c(N)n(Cc2ccccc2)c(=O)[nH]c1=O", "Potency": "inconclusive: 1.26 µM [inhibitor, single point]"}, {"molecule": "CCOC(=O)N1CCC(n2c(SCC(=O)OCc3ccccc3)nc3ccsc3c2=O)CC1", "Potency": "inconclusive: 5.8 µM [inhibitor, partial curve, poor fit]"}, {"molecule": "O=C(COc1cccc2cccnc12)N/N=C/c1ccccc1O", "Potency": "inconclusive: 29.1 µM [inhibitor, single point]"}, {"molecule": "O=C1CSC(c2ccccc2Br)N1c1ccc(Cl)cn1", "note": "(configuration not stated)", "Potency": "inconclusive: 1.26 µM [inhibitor, single point]"}, {"molecule": "CCN1CCN(CCCNC(=O)c2cc3c(s2)-c2c(C)cccc2OC3)CC1", "Potency": "active: 10 µM"}, {"molecule": "Nc1ncnc2c1ncn2C1CCCC1", "Potency": "inactive and inconclusive: 6.31 µM [inhibitor, single point]"}, {"molecule": "O=C(c1cc([N+](=O)[O-])cc([N+](=O)[O-])c1)N1CCOCC1", "Potency": "inconclusive: 0.126 µM [inhibitor, full curve, poor fit]"}, {"molecule": "O=C(COc1ccc(Cl)cc1Cl)N/N=C/CCc1ccccc1", "activity change, negative = inhibition": "inactive: 19%"}, {"molecule": "COCCN(C(=O)CSc1nnc2cc(C)c3ccccc3n12)c1c(N)n(Cc2ccccc2)c(=O)[nH]c1=O", "Potency": "inconclusive: 25.1 µM [inhibitor, partial curve, poor fit]"}, {"molecule": "N[C@@H](Cc1ccc(Oc2ccc(O)cc2)cc1)C(=O)O", "activity change, negative = inhibition": "inactive: -6.14%"}, {"molecule": "COc1cccc(OCC(O)CN2CCOCC2)c1", "note": "(configuration not stated)", "Potency": "inconclusive: 0.891 µM [activator, single point]"}, {"molecule": "COc1ccc(NS(=O)(=O)Cc2ccccc2Cl)cn1", "activity change, negative = inhibition": "inactive: -0.306%"}, {"molecule": "CCOC(=O)c1c(C)[nH]c(C(C)=NNC(=O)c2cccs2)c1C", "Potency": "inconclusive: 0.708 µM [activator, partial curve, poor fit]"}, {"molecule": "O=C(N/N=C/c1ccccc1OC(F)F)C1=COCCO1", "activity change, negative = inhibition": "inactive: 19.6% [at 46.1 µM]"}, {"molecule": "Cc1ccc(S(=O)(=O)N(CCC#N)C2CCCCC2)c2nsnc12", "Potency": "inconclusive: 6.31 µM [activator, single point]"}, {"molecule": "COc1cnc(-c2ccccn2)nc1N(C)c1ccccc1", "Potency": "inconclusive: 25.1 µM [inhibitor, single point]"}, {"molecule": "O=C(Nc1ccc(Cl)c([N+](=O)[O-])c1)C(Sc1ccccc1)c1ccccc1", "note": "(configuration not stated)", "Potency": "inconclusive: 14.6 µM [inhibitor, partial curve, poor fit]"}, {"molecule": "COCc1cc(C)nc(SCC[N+](C)(C)CC(=O)Nc2ccccc2)c1C#N", "activity change, negative = inhibition": "inactive: -2.26% [at 46.1 µM]"}, {"molecule": "CN(C)C(CNC(=O)C1CCN(S(=O)(=O)c2cccc(C(F)(F)F)c2)CC1)c1ccccc1", "note": "(configuration not stated)", "Potency": "inconclusive: 35.5 µM [inhibitor, single point]"}, {"molecule": "CN1CCN(CCC(=O)N/N=C/C=C2\\N(C)c3ccccc3C2(C)C)CC1", "Potency": "inconclusive: 35.5 µM [inhibitor, single point]"}, {"molecule": "CC(C)(C)c1ccc(C(=O)N2CC(=O)Nc3ccc(F)cc3C2c2ccc(F)cc2)cc1", "note": "(configuration not stated)", "Potency": "inconclusive: 35.5 µM [inhibitor, single point]"}, {"molecule": "CC(C)OC(=O)/C(=C\\c1ccc2c(c1)c1ccccc1n2C)NC(=O)c1ccccc1", "Potency": "inconclusive: 28.2 µM [inhibitor, single point]"}, {"molecule": "CCOC(=O)c1sc(NC(=O)c2ccc(Br)o2)cc1C", "Potency": "inconclusive: 1 µM [activator, partial curve, poor fit]"}, {"molecule": "CCOC(=O)C1=C(c2ccccc2)N=c2s/c(=C\\c3cc(OC)c(OC)c(OC)c3)c(=O)n2C1c1cccs1", "note": "(configuration not stated)", "Potency": "inconclusive: 4.61 µM [inhibitor, single point]"}, {"molecule": "O=C1NC(=O)N(c2ccc3c(c2)OCO3)C(=O)/C1=C\\c1ccc(N2CCCCC2)o1", "activity change, negative = inhibition": "inactive: -13.8%"}, {"molecule": "Cc1ccc(C(=O)Nc2nnc(C3CCCCC3)s2)o1", "Potency": "inconclusive: 1.83 µM [activator, partial curve, poor fit]"}, {"molecule": "O=S(=O)(Nc1cccnc1)c1ccc(C2CCCCC2)cc1", "Potency": "inconclusive: 35.5 µM [inhibitor, single point]"}, {"molecule": "CCCSc1nc2sc3c(c2c(=O)[nH]1)CCN(Cc1ccccc1)C3", "Potency": "inconclusive: 12.6 µM [activator, partial curve, poor fit]"}, {"molecule": "CCCCn1c(N)c(N(CCOC)C(=O)CSCc2cccc(C)c2)c(=O)[nH]c1=O", "activity change, negative = inhibition": "inactive: 16.5%"}, {"molecule": "Cc1nn(-c2ccccc2)c(C)c1/C=N/NC(=O)CSc1nnc(SCc2ccc(Cl)cc2)s1", "Potency": "inconclusive: 10 µM [inhibitor, partial curve, poor fit]"}, {"molecule": "Clc1ccccc1CSc1nnc(Cn2cnc3ccccc32)n1-c1ccccc1", "Potency": "inconclusive: 35.5 µM [inhibitor, single point]"}, {"molecule": "Cc1ccc(O)c(C(=O)c2cc(C#N)c3nc4ccccc4n3c2)c1", "activity change, negative = inhibition": "inactive: -1.46% [at 46.1 µM]"}, {"molecule": "Cc1cc(NC2CCCCC2)nc(N2CCOCC2)n1", "Potency": "inconclusive: 32.6 µM [inhibitor, single point]"}, {"molecule": "COc1ccc(CC(=O)N2CCCc3ccccc32)cc1OC", "Potency": "inconclusive: 2.24 µM [inhibitor, single point]"}, {"molecule": "COc1cc(C2/C(=C(\\O)c3cc(C)ccc3C)C(=O)C(=O)N2CCN(C)C)ccc1O", "note": "(configuration not stated)", "Potency": "inconclusive: 17.8 µM [activator, single point]"}, {"molecule": "COc1ccc(NC(=O)CN(c2ccc([N+](=O)[O-])cc2)S(=O)(=O)c2ccccc2)cc1", "Potency": "inconclusive: 25.1 µM [inhibitor, single point]"}, {"molecule": "CC(=O)Nc1ccc(S(=O)(=O)Oc2ccc(/C=N/NC(=O)c3ccc(Cl)cc3)cc2)cc1", "activity change, negative = inhibition": "inactive: -12.9%"}, {"molecule": "CCOc1ccc(NC(=O)NCc2cccn2C)cc1", "Potency": "inconclusive: 11.2 µM [activator, partial curve]"}, {"molecule": "Cc1ccc(NC(=O)c2cc(CC(C)C)nc3ccccc23)cc1", "Potency": "inconclusive: 35.5 µM [inhibitor, single point]"}, {"molecule": "COc1ccc(CCNC(=O)CSc2nc(C)cs2)cc1", "Potency": "inconclusive: 15.8 µM [activator, single point]"}, {"molecule": "Cc1cc(C(=O)NNC(=O)c2ccc(Cl)c(S(N)(=O)=O)c2)c(C)o1", "activity change, negative = inhibition": "inactive: -1.72% [at 46.1 µM]"}, {"molecule": "COc1ccc2c(c1)c(C(=O)N/N=C/c1ccc(Cl)cc1)c(C)n2C", "Potency": "inconclusive: 3.98 µM [inhibitor, full curve]"}, {"molecule": "CCCCN(C(=O)CSc1nn(-c2ccc(F)cc2)c(=S)s1)c1c(N)n(CCCC)c(=O)[nH]c1=O", "Potency": "inconclusive: 11.2 µM [inhibitor, single point]"}, {"molecule": "CCN1CCc2c(OCC(=O)Nc3cccc(C)c3)cccc2C1=O", "activity change, negative = inhibition": "inactive: 18.2% [at 46.1 µM]"}, {"molecule": "Cc1ccc(N2CCN(C(=O)C3CCC(CNS(=O)(=O)c4ccc(Br)s4)CC3)CC2C)cc1", "note": "(configuration not stated)", "activity change, negative = inhibition": "inactive: -3.54% [at 46.1 µM]"}, {"molecule": "O=C(Nc1ccc(Cl)cc1)c1ccc2c(c1)OCO2", "Potency": "inconclusive: 0.224 µM [activator, full curve, poor fit]"}, {"molecule": "Cc1cccc(NC(=O)CN2CCc3cc4c(cc3C2C)OCCCO4)c1", "note": "(configuration not stated)", "Potency": "inconclusive: 31.6 µM [inhibitor, partial curve, poor fit]"}, {"molecule": "Cc1ccnc(NS(=O)(=O)c2ccc(CC(C)C)cc2)c1", "Potency": "inconclusive: 6.51 µM [activator, single point]"}, {"molecule": "CN1CCN(C(=O)C(N)Cc2ccccc2)CC1", "note": "(configuration not stated)", "Potency": "inconclusive: 0.562 µM [activator, full curve, poor fit]"}, {"molecule": "O=C(c1ccc2c(=O)n(Cc3ccco3)c(=S)[nH]c2c1)N1CCN(c2ccccc2)CC1", "activity change, negative = inhibition": "inactive: -9.42%"}]}]}
